# Out of some 390,000 compounds screened, about 910 (0.23%) were called active. The shares of active, inactive and inconclusive entries below differ from those in the screen. The call rests on the fitted dose curve; in most records, active means well fitted inhibition curve with a large enough effect; inconclusive means small, poorly fitted or top-dose-only effect; inactive means no such curve, though single readings can be large or run the other way. A potency beside an inconclusive call is a rough fit, not a confirmed value.
# The chains behind the UniProt entries cited, without tags or fusion partners. Where a name states a change or a piece, a line headed by the entry shows the natural chain unless it says otherwise.
# UniProt O94782: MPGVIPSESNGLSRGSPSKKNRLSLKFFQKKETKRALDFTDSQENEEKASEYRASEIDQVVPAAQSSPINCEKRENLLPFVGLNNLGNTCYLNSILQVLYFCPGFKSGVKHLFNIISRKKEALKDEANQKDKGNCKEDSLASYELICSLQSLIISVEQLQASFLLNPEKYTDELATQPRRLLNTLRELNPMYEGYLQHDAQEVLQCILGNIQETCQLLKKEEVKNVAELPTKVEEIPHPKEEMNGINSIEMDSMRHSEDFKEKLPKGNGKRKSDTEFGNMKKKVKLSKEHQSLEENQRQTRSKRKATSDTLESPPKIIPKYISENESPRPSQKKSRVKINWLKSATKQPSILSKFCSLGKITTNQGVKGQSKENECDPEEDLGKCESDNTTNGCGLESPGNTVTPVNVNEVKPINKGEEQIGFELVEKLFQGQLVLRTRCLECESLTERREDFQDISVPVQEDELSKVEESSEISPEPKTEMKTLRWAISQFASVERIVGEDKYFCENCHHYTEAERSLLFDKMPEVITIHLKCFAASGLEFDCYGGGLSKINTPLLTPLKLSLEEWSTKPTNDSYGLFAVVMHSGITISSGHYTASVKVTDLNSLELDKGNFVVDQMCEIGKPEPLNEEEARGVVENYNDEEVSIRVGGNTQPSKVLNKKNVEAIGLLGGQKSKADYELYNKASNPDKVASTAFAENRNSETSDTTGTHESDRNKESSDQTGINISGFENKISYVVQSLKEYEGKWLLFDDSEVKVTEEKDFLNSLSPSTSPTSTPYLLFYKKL
# Biological target: Ubiquitin carboxyl-terminal hydrolase 1 (Homo sapiens) (UniProt O94782)
# Experiment: Inhibitors of USP1/UAF1: Primary Screen; further: nearly all actives have a fitted effect of over 60% in size
# Settings: recombinant USP1/UAF1, Ub-Rhodamine cleavage fluorescence; activity change, negative = inhibition: at 57.1 µM (top of the series)
# Procedure, shortened: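 1 nM enzyme complex + cpd, 15 min RT; start with Ub-Rho 150nM final; kinetic fluorescence ex 480/em 540, 6 reads q60 s. Buffer 50mM HEPES pH 7.8, 0.5mM EDTA, 0.1 mg/ml BSA, 1mM TCEP, 0.01% Tween-20.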
# On the % scale 0 is the no-effect control and ±100 the full control effect; potency means the concentration at half of the fitted maximal effect.
SMILES,Potency,"activity change, negative = inhibition"
CCCSc1ncc(Cl)c(C(=O)N(Cc2ccc(Cl)cc2)Cc2ccco2)n1,"inconclusive: 0.891 µM [inhibitor, full curve, poor fit]",
Cc1ccc(-n2c(=O)c3c4c(sc3n(CC(=O)C(C)(C)C)c2=O)CCCCC4)cc1C,"inconclusive: 50.1 µM [inhibitor, partial curve, poor fit]",
CCOc1ccc(NC(=S)Nc2ccc(OC)cc2)cc1,"inconclusive: 7.94 µM [inhibitor, partial curve, poor fit]",
CCOC(=O)C1=C(COc2ccccc2)NC(=O)NC1c1ccc2ccccc2c1 (stereo not given),"inconclusive: 10 µM [inhibitor, partial curve]",
CCCCN1C(=O)C(=O)N(c2ccccc2)C1=S,inactive,
O=C(NCc1nc2ccccc2[nH]1)C1=C[C@H](c2ccc(Br)cc2)C[C@H](OCc2ccc(CO)cc2)O1,"inconclusive: 44.7 µM [inhibitor, partial curve, poor fit]",
O=C(/C=C/c1ccc(Cl)cc1)c1ccc([N+](=O)[O-])o1,"inconclusive: 20 µM [inhibitor, partial curve]",
COC(=O)c1ccc(NC(=O)c2c(-c3ccccc3)c(-c3ccccc3)nn(C)c2=O)cc1,"inconclusive: 7.08 µM [inhibitor, partial curve, poor fit]",
Cc1ccccc1NC(=O)CCS(=O)(=O)c1cccc2nonc12,"inconclusive: 4.47 µM [inhibitor, single point]",
O=C(c1ccccc1F)n1c2c(c3ccccc31)CCCC2,"inconclusive: 44.7 µM [inhibitor, partial curve, poor fit]",
COC(=O)c1cc(NC(=S)NCc2ccc(Cl)cc2)cc(C(=O)OC)c1,inactive,
COc1ccc(NC(=O)COCc2cc(-c3ccco3)on2)cc1Cl,"inconclusive: 3.16 µM [inhibitor, full curve, poor fit]",
Cc1ccc(CN=Cc2[nH]c3ccc(Br)c(Cl)c3c2O)cc1,"inconclusive: 3.16 µM [inhibitor, full curve]",
Cc1ccccc1Cn1nnc2c1C(=O)c1ccccc1C2=O,"inconclusive: 14.1 µM [inhibitor, partial curve]",
CCOc1ccc(N=C2SCCCN2C(=O)c2c(CC)noc2C)cc1,inactive,
Cc1cc(SCC(=O)NC2CCCCC2)nc2ccccc12,inactive,
Oc1cccc(/C=N/Nc2cc(N3CCCC3)nc(N3CCCC3)n2)c1,"inconclusive: 31.6 µM [inhibitor, single point]",
O=c1[nH]c(/C=C/c2ccc([N+](=O)[O-])cc2)c([N+](=O)[O-])c(=O)[nH]1,"inconclusive: 22.4 µM [inhibitor, partial curve, poor fit]",
COc1ccc(-c2cc(C(=O)Oc3ccc(Br)cc3)c3ccccc3n2)cc1,"inconclusive: 0.1 µM [inhibitor, full curve, poor fit]",
COC(=O)C1CCN(C2=C(NS(=O)(=O)c3ccc(Cl)cc3)C(=O)c3ccccc3C2=O)CC1,"inconclusive: 35.5 µM [inhibitor, partial curve]",
Nc1nc(N)c(S(=O)(=O)c2ccccc2)c(Nc2ccccc2)n1,inactive,
COc1ccc(CCNC(=O)CCc2c(C)c3ccc(O)c(C)c3oc2=O)cc1,"inconclusive: 0.447 µM [inhibitor, full curve, poor fit]",

# Single records, from the list above.
# COc1ccc(CCNC(=O)CCc2c(C)c3ccc(O)c(C)c3oc2=O)cc1 in the list: Potency: inconclusive: 0.447 µM [inhibitor, full curve, poor fit]
# Cc1ccc(CN=Cc2[nH]c3ccc(Br)c(Cl)c3c2O)cc1 in the list: Potency: inconclusive: 3.16 µM [inhibitor, full curve]
# COC(=O)c1ccc(NC(=O)c2c(-c3ccccc3)c(-c3ccccc3)nn(C)c2=O)cc1 in the list: Potency: inconclusive: 7.08 µM [inhibitor, partial curve, poor fit]

# Continuation.

SMILES,Potency,"activity change, negative = inhibition"
CC(C(=O)NCc1ccccc1)n1ccc2cc(S(=O)(=O)N3CCCC3)ccc21 (stereo not given),inactive,
CCCOc1ccc(CC2C(=O)Nc3ccc(Br)cc32)cc1 (stereo not given),"inconclusive: 7.08 µM [inhibitor, partial curve, poor fit]",
COc1ccc(-c2ccc(OC)c([C@H]3[C@H]4C=CC[C@@H](C)[C@@H]4C(=O)N3Cc3ccccc3)c2)cc1OC,"inconclusive: 31.6 µM [inhibitor, partial curve]",
Cc1ccc(S(=O)(=O)N2C[C@@H]3[C@H]4CC[C@H](C4)[C@@H]3[C@@H](C)[C@H]2C#N)cc1,"inconclusive: 0.316 µM [inhibitor, full curve, poor fit]",
CCn1ncc(NC(=O)Nc2cccc(C(F)(F)F)c2)c1C(N)=O,inactive,
COc1cc(C=NO)nc(-c2ccccn2)c1,inactive,
CN(C)CCCN(C(=O)c1ccc2c(c1)CCCC2)c1nc2cc3c(cc2s1)OCO3,inactive,
COc1ccc2cc(CN(CCc3ccccc3)Cc3nnnn3CC3CCCO3)c(=O)[nH]c2c1 (stereo not given),"inconclusive: 35.5 µM [inhibitor, single point]",
CCOC(=O)c1ccc(OCCOc2cccc(C)c2)cc1,inactive,
COc1ccc2cc(OCC(=O)NNC(=O)Nc3ccc(OC)c(OC)c3)ccc2c1,"inconclusive: 63.1 µM [inhibitor, partial curve, poor fit]",
CCCCN=Cc1sc2ccc(OCC)cc2c1O,inactive,
Cc1ccc(CCNC(=O)c2cc3ccccn3n2)cc1,inactive,
CCOC(=O)c1cc2c(=O)n3ccccc3nc2n(CCCOC)c1=NC(=O)c1cc2ccccc2o1,"inconclusive: 0.562 µM [inhibitor, full curve]",
CCOC(=O)c1nc2ccc(C)cc2c2c1C1CC(c3c(Cl)cccc31)N2C(=O)OCc1ccccc1 (stereo not given),"inconclusive: 0.398 µM [inhibitor, full curve, poor fit]",
CCOCCCNC(=O)C(c1ccc(OC)cc1)N(Cc1cccs1)C(=O)CNC(C)=O (stereo not given),"inconclusive: 11.2 µM [inhibitor, partial curve, poor fit]",
NS(=O)(=O)c1ccc(CCNC(=O)CCCNC(=O)c2ccc(Cl)cc2)cc1,inactive,
COCCNC(=O)c1ccccc1N(Cc1ccccc1)S(=O)(=O)c1ccccc1,inactive,
O=C(c1ccc(Cl)cc1)n1nc(-c2ccccc2)nc1NCc1ccco1,"inconclusive: 1 µM [inhibitor, full curve, poor fit]",
CC(=O)NC(c1ccco1)c1ccc2cccnc2c1O (stereo not given),inactive,
CC(C)C[C@H](NC(=O)c1[nH]cnc1C(=O)N[C@@H](Cc1ccccc1)C(=O)OCc1ccccc1)C(=O)OC(C)(C)C,"inconclusive: 28.2 µM [inhibitor, partial curve]",
Cc1ccc(-n2nc3c(N4CCCC(C(=O)NCc5ccccc5C)C4)nnc(C)c3c2C)cc1 (stereo not given),"inconclusive: 0.891 µM [inhibitor, full curve, poor fit]",
CC(C)(C)CC(=O)Nc1ccc(Nc2ccccc2)cc1,inactive,

SMILES,Potency,"activity change, negative = inhibition"
CCCCN1C[C@H](CO)Oc2cccc(F)c2S1(=O)=O,"inconclusive: 31.6 µM [inhibitor, partial curve, poor fit]",
Cc1ccc(S(=O)(=O)Oc2ccccc2-c2ccccc2)cc1,"inconclusive: 44.7 µM [inhibitor, partial curve, poor fit]",
Cc1ccc(C(=O)NCCNC(=O)c2ccco2)cn1,"inconclusive: 1.12 µM [inhibitor, partial curve]",
Cc1ccc(S(=O)(=O)Nc2ccc(O)c(Sc3ncn[nH]3)c2)cc1,"inconclusive: 0.562 µM [inhibitor, full curve, poor fit]",
Cc1cc(NC(=O)CCS(=O)(=O)c2ccc3c(c2)NC(=O)C(C)S3)ccc1Br (stereo not given),inactive,
COc1ccccc1C(=O)OCc1cc(=O)n2c(C)csc2n1,inactive,
CC(=O)Nc1ccc(NC(=O)C(C)OC(=O)/C=C/c2ccc3c(c2)OCO3)cc1 (stereo not given),"inconclusive: 0.282 µM [inhibitor, full curve]",
CC(C)c1ccc(NC(=O)CSC2=Nc3ccccc3C3=NC(CCC(=O)NCc4cccs4)C(=O)N23)cc1 (stereo not given),"inconclusive: 112 µM [inhibitor, partial curve, poor fit]",
CNC(=O)c1sc(N2N=C3/C(=C\c4ccccc4)CCCC3C2c2ccccc2)nc1C (stereo not given),"inconclusive: 44.7 µM [inhibitor, partial curve, poor fit]",
COC(=O)c1ccc(OC)c(CN2CCCN(Cc3cc(C)ccc3C)S2(=O)=O)c1,inactive,
O=C(/C=C/c1cccc(F)c1)Nc1cc(S(=O)(=O)N2CCOCC2)ccc1Cl,inactive,
C=CCN1c2ccccc2[C@]23C[C@@H](C(=O)OC)N(C(=O)c4ccco4)C2=NC(C(=O)OC)=C(C(=O)OC)[C@H]13,"inconclusive: 0.0794 µM [inhibitor, full curve, poor fit]",
COc1ccc(C(OC(=O)c2ccco2)C(=O)NC2CCCC2)cc1OC (stereo not given),"inconclusive: 0.398 µM [inhibitor, full curve, poor fit]",
Cc1oc2ncn(C)c(=O)c2c1C(=O)N(C)c1ccccc1F,"inconclusive: 44.7 µM [inhibitor, partial curve, poor fit]",
COc1ccc(NC(=O)CSC2=Nc3ccccc3C3=NC(CCC(=O)NCCc4ccccc4)C(=O)N23)cc1 (stereo not given),"inconclusive: 28.2 µM [inhibitor, partial curve]",
COc1ccc(NC(=O)Nc2cn(CC(C)C)c(=O)c3ccccc23)c(OC)c1,"inconclusive: 17.8 µM [inhibitor, partial curve]",
COc1ccc(-n2c(SCC(=O)NCC3CCCO3)nc3c([nH]c4ccccc43)c2=O)cc1 (stereo not given),inactive,
O=C(Nc1cccc(Cl)c1)Nc1sccc1-c1nc2ccccc2s1,"inconclusive: 0.794 µM [inhibitor, full curve, poor fit]",
Cc1cnc(C(=O)NCc2ccc(F)cc2)cn1,"inconclusive: 7.94 µM [inhibitor, full curve, poor fit]",
CC(=O)Oc1ccc(/C=C2/CCc3ccccc3C2=O)cc1,,inconclusive: -28% [inhibitor]
Cn1c(=O)c2c(ncn2CC(=O)NC[C@H]2O[C@@H](n3cnc4c(N)ncnc43)[C@H](O)[C@@H]2O)n(C)c1=O,"inconclusive: 0.1 µM [inhibitor, full curve, poor fit]",

# — PubChem BioAssay AID743255 (National Center for Advancing Translational Sciences (NCATS), 2014)
